This note sets out measurements from patent US20230416410A1.

In test [1] the target is T1, recombinant bovine FcgR3 (bovine) (UniProt P79107).
T1 sequence (chain, biotin on the BAP tag (BirA)): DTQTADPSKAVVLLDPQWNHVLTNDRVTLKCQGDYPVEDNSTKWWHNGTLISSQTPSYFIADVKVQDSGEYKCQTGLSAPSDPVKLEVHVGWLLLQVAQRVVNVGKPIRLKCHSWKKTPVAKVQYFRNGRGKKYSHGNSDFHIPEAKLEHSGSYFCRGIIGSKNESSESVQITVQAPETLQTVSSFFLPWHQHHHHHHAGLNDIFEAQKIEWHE
The test is described as follows: SPR Biacore, receptor on SA sensor; LS = low signal, indicating very weak binding. (In general: Surface plasmon resonance follows binding to a sensor surface in real time, without labels.)

Test [2] has as its target T2, recombinant bovine FcgR2 (bovine) (UniProt Q28110).
T2 sequence (chain, biotin on the BAP tag (BirA)): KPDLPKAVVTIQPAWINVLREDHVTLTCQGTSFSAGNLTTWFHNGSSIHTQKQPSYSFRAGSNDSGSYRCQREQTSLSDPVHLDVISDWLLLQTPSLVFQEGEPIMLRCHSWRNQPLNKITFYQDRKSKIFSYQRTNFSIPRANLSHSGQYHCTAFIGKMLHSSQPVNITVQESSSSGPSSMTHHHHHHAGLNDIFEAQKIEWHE
Nature of the test: SPR Biacore.

Test [3] addresses T1, recombinant bovine FcgR3 (bovine). The test is described as follows: SPR Biacore.
Test [4] concerns the target T2, recombinant bovine FcgR2 (bovine). The test is described as follows: SPR Biacore, receptor on SA sensor; LS = low signal, indicating very weak binding.

Positions count from the first letter of the chain named. No constants are given. Whether binding was seen depends on the method and setting. Some entries that bind do so weakly or less than the wild type. Sequences can lack the tags named with a protein.

B1: CTLA4 Fc bIgG3bWin (Fc fusion)
chain: DMHVAQPAVVLASSRGVASFVCEYGSSGNAAEVRVTVLRQAGSQMTEVCAATYTVEDELAFLDDSTCTGTSSGNKVNLTIQGLRAMDTGLYICKVELMYPPPYYVGMGNGTQIYVIDPEPCPDSDTARRPVPTTPKTTIPPGKPTTQESEVEKTPCQCSKCPEAAGALSVFIFPPKPKDTLTISGTPEVTCVVVDVGQDDPEVQFSWFVDDVEVHTARTKPREEQFNSTYRVVSALRIQHQDWLQGKEFKCKVNNKGLPAPIVRTISRTKGQAREPQVYVLAPPREELSKSTLSLTCLITGFYPEEIDVEWQRNGQPESEDKYHTTAPQLDADGSYFLYSRLRVNKSSWQEGDHYTCAVMHEALRNHYKEKSISRSPGK
Regarding B1, in test [1], the binding entry is listed as “binds”.

B2: CTLA4 Fc bIgG3bWinSAS (Fc fusion)
chain: B1 chain with P259S, P261S
With B2, the binding result in test [1] is given as “binds”.

B3: CTLA4 Fc bIgG3bSAS (Fc fusion)
chain: B1 chain with A164P, A165L, A167G, P259S, P261S
Consider B3, for which, in test [1], the binding result is given as “binds”.

B4: CTLA4 Fc bIgG3bSAP (Fc fusion)
chain: B1 chain with A164P, A165L, A167G, P259S
In the case of B4, the binding entry in test [1] was “binds”.

B5: CTLA4 Fc bIgG3b (Fc fusion)
chain: B1 chain with A164P, A165L, A167G
For B5, the binding result in test [2] and in test [3] was “binds” throughout.

B6: CTLA4 Fc bIgG1bWin (Fc fusion)
chain: DMHVAQPAVVLASSRGVASFVCEYGSSGNAAEVRVTVLRQAGSQMTEVCAATYTVEDELAFLDDSTCTGTSSGNKVNLTIQGLRAMDTGLYICKVELMYPPPYYVGMGNGTQIYVIDPEPCPDSDDPTCKPSPCDCCPPPEAAGAPSVFIFPPKPKDTLTISGTPEVTCVVVDVGHDDPEVKFSWFVDDVEVNTATTKPREEQFNSTYRVVSALRIQHQDWTGGKEFKCKVHNEGLPAPIVRTISRTKGPAREPQVYVLAPPQEELSKSTVSLTCMVTSFYPDYIAVEWQRNGQPESEDKYGTTPPQLDADSSYFLYSKLRVDRNSWQEGDTYTCVVMHEALHNHYTQKSTSKSAGK
With B6, in test [1], the binding result is listed as “binds”.

B7: CTLA4 Fc bIgG1bWinSAS (Fc fusion)
chain: B6 chain with P237S, P239S
Turning to B7, the binding result in test [1] was “binds”.

B8: CTLA4 Fc bIgG1bSAS (Fc fusion)
chain: B6 chain with A142L, A143P, A145G, P237S, P239S
B8: in test [1], the binding result is listed as “binds”.

B9: CTLA4 Fc bIgG1bWinSS (Fc fusion)
chain: B6 chain with A238S, P239S
For the molecule B9, the binding result in test [4] and in test [1] was “binds” each time.

B10: CTLA4 Fc bIgG1bSAP (Fc fusion)
chain: B6 chain with A142L, A143P, A145G, P237S
Regarding B10, the binding result in test [1] is recorded as “binds”.

B11: CTLA4 Fc bIgG1b (Fc fusion)
chain: B6 chain with A142L, A143P, A145G
For B11, the binding entry in test [2] and in test [3] was “binds” in each case.
